In one test the target is STING-HA (UniProt Q86WV6). Description: co-IP; HEK293T transfected with VZV gE and STING-HA, MAVS-MYC or MAVSΔTM-MYC plasmids for 24 h; lysate precipitated by the tag (anti-MYC for MAVS); blots with anti-gE and anti-HA or anti-MYC.
For a further test, the target named is MAVS-MYC (UniProt Q7Z434). Described as above.

By UniProt entry, the sequences of proteins in these tests, tags left out. Residues count along the entry.
UniProt Q86WV6: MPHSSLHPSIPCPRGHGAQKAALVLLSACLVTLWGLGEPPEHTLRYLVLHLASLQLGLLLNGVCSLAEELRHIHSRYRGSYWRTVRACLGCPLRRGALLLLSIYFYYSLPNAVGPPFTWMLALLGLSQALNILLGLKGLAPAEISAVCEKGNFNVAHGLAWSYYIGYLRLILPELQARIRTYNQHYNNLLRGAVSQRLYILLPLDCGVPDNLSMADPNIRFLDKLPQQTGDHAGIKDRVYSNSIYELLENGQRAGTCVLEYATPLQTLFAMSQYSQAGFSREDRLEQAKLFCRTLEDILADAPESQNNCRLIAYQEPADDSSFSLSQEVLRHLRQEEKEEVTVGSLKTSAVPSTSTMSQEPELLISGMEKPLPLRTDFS
UniProt Q7Z434: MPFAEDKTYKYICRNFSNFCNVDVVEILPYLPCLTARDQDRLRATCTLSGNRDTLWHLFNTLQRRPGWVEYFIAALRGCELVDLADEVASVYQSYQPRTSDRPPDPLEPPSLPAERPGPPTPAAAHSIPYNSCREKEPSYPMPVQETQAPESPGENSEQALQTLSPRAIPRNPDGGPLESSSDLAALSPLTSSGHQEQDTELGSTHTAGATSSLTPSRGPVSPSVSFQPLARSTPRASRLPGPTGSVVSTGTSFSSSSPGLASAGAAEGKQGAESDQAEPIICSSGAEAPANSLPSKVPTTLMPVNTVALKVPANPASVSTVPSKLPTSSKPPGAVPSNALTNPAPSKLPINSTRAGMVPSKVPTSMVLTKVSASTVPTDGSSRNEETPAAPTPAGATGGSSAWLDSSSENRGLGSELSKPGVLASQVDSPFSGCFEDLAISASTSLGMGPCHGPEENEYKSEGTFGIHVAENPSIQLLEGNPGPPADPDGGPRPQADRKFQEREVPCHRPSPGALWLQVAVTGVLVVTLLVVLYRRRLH
UniProt P09259, residues 31-623: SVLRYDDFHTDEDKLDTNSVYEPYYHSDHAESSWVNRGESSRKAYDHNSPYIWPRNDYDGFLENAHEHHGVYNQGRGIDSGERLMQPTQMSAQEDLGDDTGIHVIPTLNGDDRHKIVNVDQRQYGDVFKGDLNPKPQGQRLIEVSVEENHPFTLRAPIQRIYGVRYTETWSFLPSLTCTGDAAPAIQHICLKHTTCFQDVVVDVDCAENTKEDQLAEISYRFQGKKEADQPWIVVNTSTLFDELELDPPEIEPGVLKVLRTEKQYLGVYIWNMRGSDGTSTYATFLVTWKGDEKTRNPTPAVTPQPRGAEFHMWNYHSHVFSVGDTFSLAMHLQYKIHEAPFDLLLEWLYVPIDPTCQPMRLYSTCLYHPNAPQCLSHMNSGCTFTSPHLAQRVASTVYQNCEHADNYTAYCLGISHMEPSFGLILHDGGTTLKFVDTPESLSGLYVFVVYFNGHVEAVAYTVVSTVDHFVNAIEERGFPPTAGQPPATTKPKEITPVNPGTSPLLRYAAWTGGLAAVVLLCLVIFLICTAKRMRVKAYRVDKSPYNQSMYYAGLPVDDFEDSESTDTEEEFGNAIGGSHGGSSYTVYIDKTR

Results are given in words; binding and its absence hold for the method and conditions named. Binding seen in cells or lysates may run through a third protein. Some binding calls cover weakened binding; strength is not graded here.

As to “Varicella zoster virus glycoprotein E (from UniProt P09259 31-623)”, the binding entry in the test with STING-HA and with MAVS-MYC was “binds” throughout.
